# Source: PubChem BioAssay AID1671190 (National Center for Advancing Translational Sciences (NCATS), 2021)
# Amino acid sequences for entries named in this document (tags omitted). A change or cut given only in a name is not applied to a line headed by its entry.
# UniProt P18054: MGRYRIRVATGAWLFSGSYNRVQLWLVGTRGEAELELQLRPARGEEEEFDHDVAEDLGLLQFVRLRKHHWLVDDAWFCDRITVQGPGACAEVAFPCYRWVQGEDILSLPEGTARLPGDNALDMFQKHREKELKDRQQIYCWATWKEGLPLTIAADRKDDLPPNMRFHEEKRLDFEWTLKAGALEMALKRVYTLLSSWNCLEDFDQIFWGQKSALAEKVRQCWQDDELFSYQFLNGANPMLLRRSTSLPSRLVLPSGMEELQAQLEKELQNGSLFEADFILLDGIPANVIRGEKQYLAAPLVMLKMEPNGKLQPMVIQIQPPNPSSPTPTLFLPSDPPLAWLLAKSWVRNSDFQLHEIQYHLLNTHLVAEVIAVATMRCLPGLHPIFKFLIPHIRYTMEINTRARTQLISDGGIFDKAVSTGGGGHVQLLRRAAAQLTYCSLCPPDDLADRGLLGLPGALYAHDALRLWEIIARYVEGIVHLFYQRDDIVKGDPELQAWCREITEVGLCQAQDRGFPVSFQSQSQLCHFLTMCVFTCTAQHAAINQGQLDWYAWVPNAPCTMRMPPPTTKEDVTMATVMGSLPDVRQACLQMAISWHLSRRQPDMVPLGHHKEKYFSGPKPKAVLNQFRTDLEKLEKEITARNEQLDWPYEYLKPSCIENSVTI
# In all, about 580,000 compounds went through this assay and about 6,100 (1.1%) were called active. Inconclusive results, whose numbers are uncertain, are shown with a selection of clear calls. Calls follow the shape of the dose curve; as a rule, active = well fitted inhibition curve with a large enough effect; inconclusive = small, poorly fitted or top-dose-only effect, or another doubt; inactive = no such curve, though single readings can be large or run the other way. Where the call is inconclusive, the potency comes from a doubtful curve fit.
# Biological target: Polyunsaturated fatty acid lipoxygenase ALOX12 (Homo sapiens) (UniProt P18054)
# Experiment: Primary qHTS assay for inhibitors of human arachidonate 12S-lipoxygenase (ALOX12): Round 2
# Details: purified 12hLO, xylenol orange hydroperoxide absorbance; activity change, negative = inhibition: at 108 µM (top of the series) unless noted
# How it was run: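 Purified human 12hLO at 150 nM in 25 mM Hepes, 0.01% Triton X-100, pH 7.0, preincubated 15 min at room temperature with compound. Reaction started with 40 uM arachidonic acid, 30 min at room temperature. Hydroperoxide measured by Fe-xylenol orange, 573/405 nm absorbance ratio.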
# % is scaled to controls: 0 for no effect and ±100 for the full control effect; potency is read from the fitted curve at half-maximal effect.
SMILES,Potency,"activity change, negative = inhibition"
CCOC(=O)c1cn(CC)c2ccc(Br)cc2c1=O,"inconclusive: 56.2 µM [inhibitor, partial curve, poor fit]",
C#CCNC(=O)C1=C[C@H](c2ccc(Br)cc2)[C@@H](CCCO)[C@H](OCC)O1,"inconclusive: 89.1 µM [inhibitor, partial curve, poor fit]",
COc1ccc(-c2c(C)oc3cc(OCCN4CCCCC4)ccc3c2=O)cc1,"inconclusive: 28.2 µM [inhibitor, single point]",
O=C(O)c1c2c(nc3ccc(F)cc13)CCC2,"inconclusive: 12.6 µM [inhibitor, full curve, poor fit]",
NS(=O)(=O)c1ccc(NC(=O)c2ccc(Cl)c(S(=O)(=O)NCc3ccco3)c2)cc1,inactive,
COc1cccc(C2CC(=O)N3CN(c4cccc(Cl)c4C)CSC3=C2C#N)c1OC (stereo not drawn),active: 7.94 µM,
CCc1ccc(-c2nc3ccccc3c(C(=O)O)c2C)cc1,"inconclusive: 89.1 µM [inhibitor, partial curve, poor fit]",
COc1ccc(N2CCN(C(=O)c3cc4c(s3)-c3ccccc3OC4)CC2)cc1,inactive,
CC(=O)Nc1cccc2ccc(O)cc12,"inconclusive: 89.1 µM [inhibitor, single point]",
S=c1[nH]ccn1-c1cccc(Cl)c1,"inconclusive: 70.8 µM [inhibitor, partial curve, poor fit]",
COc1ccc(-c2oc3ccccc3c(=O)c2OCC(=O)O)cc1,"inconclusive: 89.1 µM [inhibitor, single point]",
S=C(Nc1ccccn1)NC1CCCCC1,active: 22.4 µM,
Cc1cccc(-n2c(SCC(=O)N3CC(=O)Nc4ccccc43)nc3ccccc3c2=O)c1,inactive,
O=C(CCN1C(=O)c2ccccc2C1=O)NCc1cccc(Cl)c1,inactive,
COc1ccc(C(=O)c2sc(Nc3cccc(Cl)c3)nc2N)cc1,"inconclusive: 44.7 µM [inhibitor, partial curve, poor fit]",
Cc1nc2ccc(C(=O)NCCCN3CCOCC3)cc2nc1C,"inconclusive: 3.55 µM [inhibitor, full curve, poor fit]",
CS(=O)(=O)N(Cc1ccco1)CC(O)Cn1c2ccccc2c2ccccc21 (stereo not drawn),"inconclusive: 38.5 µM [inhibitor, single point]",
N#CC1=C(SCc2ccc(Br)cc2)NC(=O)C(C#N)C12CCCCC2 (stereo not drawn),"inconclusive: 31.6 µM [inhibitor, partial curve, poor fit]",
CCN(CC)C(=O)Cn1cc(SCC(=O)Nc2ccccc2C)c2ccccc21,inactive,
CC1=C(C)C(c2ccccc2)NC(=S)N1 (stereo not drawn),"inconclusive: 22.4 µM [inhibitor, partial curve, poor fit]",
CC(=O)Oc1cc2c(s1)CCN(C(C(=O)C1CC1)c1ccccc1F)C2 (stereo not drawn),"inconclusive: 1.37 µM [inhibitor, full curve, poor fit]",
Cn1c(-c2ccc(F)cc2)cnc1NCc1cc2c(cc1[N+](=O)[O-])OCO2,"inconclusive: 0.355 µM [inhibitor, full curve, poor fit]",
OCCN(CCO)c1ccc2ccccc2c1,inactive,

SMILES,Potency,"activity change, negative = inhibition"
CCn1nc(C)c(CCNC(=O)C2CCC(=O)N(C3CCCC3)C2)c1C (stereo not drawn),inactive,
CCCc1[nH][nH]c(=O)c1C(c1ccc(Br)cc1)C(C#N)C#N (stereo not drawn),"inconclusive: 25.1 µM [inhibitor, full curve, poor fit]",
CC(=O)c1csc(-c2cccc(-c3nc4ccc(Cl)cn4c3NC3CCCCC3)c2)c1,"inconclusive: 11.2 µM [inhibitor, partial curve, poor fit]",
O=C(C1CCN(C(=O)N2CC3CC(C2)[C@H]2CCCC(=O)N2C3)CC1)N1CCCC1 (stereo partly drawn),inactive,
COc1cc(/C=N/NC(=O)c2ccncc2)cc2c1OCO2,inactive,
Cc1ccccc1-c1nc(-c2cccnc2)no1,inactive,
COc1cccc(N2CCN(C3C4CC5CC(C4)CC3C5)CC2)c1 (stereo not drawn),"inconclusive: 39.8 µM [inhibitor, partial curve, poor fit]",
Oc1cccc(Nc2ncnc3ccccc23)c1,inactive,
CCOc1cc(/C=C2/C(=O)ON=C2C)cc(Br)c1O,"inconclusive: 44.7 µM [inhibitor, partial curve, poor fit]",
OC1COC(OCc2ccccc2)C(O)C1O (stereo not drawn),"inconclusive: 112 µM [inhibitor, single point]",
CCn1cc(C(=O)NCc2ccc(C)cc2)c(=O)c2cc(S(=O)(=O)N(C)C)ccc21,"inconclusive: 50.1 µM [inhibitor, partial curve, poor fit]",
COC(=O)C(C)Oc1ccc2c(=O)c(-c3ccccc3)c(C(F)(F)F)oc2c1 (stereo not drawn),inactive,
NS(=O)(=O)c1ccc(NC(=S)N2CCN(c3ccc(Cl)c(Cl)c3)CC2)cc1,inactive,
CCn1nc(-c2ccccc2CN2CCOCC2)nc1N(C)C,"inconclusive: 22.4 µM [inhibitor, partial curve, poor fit]",
COc1ccc(-c2c(C)nn3c(N)c(-c4ccccc4)cnc23)cc1OC,inactive,
CCN(CC)CCCN1C(=O)c2oc3ccccc3c(=O)c2C1c1cccc(OC)c1OC (stereo not drawn),"inconclusive: 35.5 µM [inhibitor, partial curve, poor fit]",
COc1ccccc1NC(=O)c1ccc(S(=O)(=O)N(C)c2ccccc2OC)cc1,"inconclusive: 141 µM [inhibitor, partial curve, poor fit]",
COc1ccccc1N1CN(CCc2ccccc2)CNC1=S,inactive,
COc1cc(-c2nc3ccccc3s2)cc(OC)c1OC,"inconclusive: 141 µM [inhibitor, single point]",
N#Cc1ccc(-c2ccc(OCCOc3ccccc3Cl)cc2)cc1,"inconclusive: 126 µM [inhibitor, partial curve, poor fit]",
COc1ccc2nc(N(CCN(C)C)C(=O)c3ccc4ncsc4c3)sc2c1,"inconclusive: 39.8 µM [inhibitor, partial curve, poor fit]",
CC(C)n1c(SCC(=O)NC2CCCCC2)nnc1-c1ccco1,inactive,
CC1CCC(NC(=O)c2cc(Sc3ccccc3Cl)nc3ccccc23)CC1 (stereo not drawn),inactive,

# In the list so far, these have a furan ring, fused or not.
SMILES,Potency,"activity change, negative = inhibition"
NS(=O)(=O)c1ccc(NC(=O)c2ccc(Cl)c(S(=O)(=O)NCc3ccco3)c2)cc1,inactive,
CS(=O)(=O)N(Cc1ccco1)CC(O)Cn1c2ccccc2c2ccccc21 (stereo not drawn),"inconclusive: 38.5 µM [inhibitor, single point]",
CC(C)n1c(SCC(=O)NC2CCCCC2)nnc1-c1ccco1,inactive,

# Later entries:

SMILES,Potency,"activity change, negative = inhibition"
COc1ccc(Cc2nnc(N)s2)cc1OC,"inconclusive: 100 µM [inhibitor, partial curve, poor fit]",
CCOC(=O)c1ccc(-c2ccc(/C=C(\C#N)C(=O)Nc3ccc(OCC)cc3)o2)cc1,"inconclusive: 126 µM [inhibitor, partial curve, poor fit]",
Cc1cc(=O)oc2cc(OCC(=O)NC(C)(C)C)ccc12,,inconclusive: -36.1% [inhibitor]
COc1ccc(COC(=O)C2=C(C)NC(=O)CC2c2cc3c(cc2Br)OCO3)cc1 (stereo not drawn),"inconclusive: 44.7 µM [inhibitor, single point]",
S=C(NCCCNC(=S)Nc1ccccc1)Nc1ccccc1,"inconclusive: 50.1 µM [inhibitor, partial curve, poor fit]",
Cc1cc2nc3c(nc2cc1C)C(O)=C3O,"inconclusive: 25.1 µM [inhibitor, partial curve, poor fit]",
CC(=O)c1ccc(NC(=O)CN2CCN(CC(=O)Nc3ccc(C(C)=O)cc3)CC2)cc1,inactive,
C=CCn1c(CCCOc2ccc(Cl)cc2Cl)n[nH]c1=S,"inconclusive: 100 µM [inhibitor, single point]",
CCN(C[C@H]1N[C@@](C)(C(=O)OC)[C@H]2C(=O)N(C)C(=O)[C@@H]12)C(=O)Nc1ccc(C)cc1,"inconclusive: 56.2 µM [inhibitor, partial curve, poor fit]",
Nc1c(-c2ccccc2)nc(Cl)nc1-c1ccccc1,"inconclusive: 25.1 µM [inhibitor, partial curve, poor fit]",
CC(C)(COC(=O)C(c1ccccc1)c1ccccc1)CN1CCOCC1,"inconclusive: 6.31 µM [inhibitor, full curve, poor fit]",
O=C(NC1CCN(Cc2ccccc2)CC1)c1ccc(Cl)cc1Cl,inactive,
COc1ccc(C(NC(=O)C2CCN(CCOc3ccc(F)cc3)CC2)c2cccs2)cc1 (stereo not drawn),"inconclusive: 44.7 µM [inhibitor, partial curve, poor fit]",
Cc1ccc(CNC(=O)C23CN(Cc4ccccc4)CC2C(c2ccc([N+](=O)[O-])cc2)=NO3)cc1 (stereo not drawn),inactive,
CC1=C(C(=O)NCc2ccc(Cl)cc2)C2(CCCCC2)OC1=O,"inconclusive: 112 µM [inhibitor, partial curve, poor fit]",
CCC(C)(Nc1ccc(OC)c(OC)c1)c1nnnn1-c1c(C)cccc1C (stereo not drawn),"inconclusive: 70.8 µM [inhibitor, partial curve, poor fit]",
O=C(NCCc1ccc(Cl)cc1)C1CCN(S(=O)(=O)N2CCC3(CC2)OCCO3)CC1,inactive,
CNC(=O)c1ccc(NC(=O)C2CCN(S(=O)(=O)c3cccc(C(F)(F)F)c3)CC2)cc1,"inconclusive: 39.8 µM [inhibitor, partial curve, poor fit]",
CC(C)CCN1CCn2c(nn(-c3ccc([N+](=O)[O-])cc3)c2=O)C1,"inconclusive: 89.1 µM [inhibitor, partial curve]",
O=C(CN1C(=O)CSc2ccccc21)NO,"inconclusive: 7.94 µM [inhibitor, single point]",
CSc1cccc(NC(=O)Cn2c(C)cc3nc4n(c(=O)c32)CCCCC4)c1,inactive,
COc1ccc(OC)c(NC(=O)Cn2c(-c3ccc(Cl)cc3)nc(C)c(CCO)c2=O)c1,"inconclusive: 44.7 µM [inhibitor, partial curve]",

# Full records, looked up by structure:
# COc1ccc(Cc2nnc(N)s2)cc1OC is listed as Potency: inconclusive: 100 µM [inhibitor, partial curve, poor fit]
# CCOC(=O)c1ccc(-c2ccc(/C=C(\C#N)C(=O)Nc3ccc(OCC)cc3)o2)cc1 is listed as Potency: inconclusive: 126 µM [inhibitor, partial curve, poor fit]
